# For at least one entry, the source does not settle the construct or the ends of the probe.
# Protein sequences, listed by entry. Tags and fused reporters are not part of them.
# UniProt P0AG30, whole entry: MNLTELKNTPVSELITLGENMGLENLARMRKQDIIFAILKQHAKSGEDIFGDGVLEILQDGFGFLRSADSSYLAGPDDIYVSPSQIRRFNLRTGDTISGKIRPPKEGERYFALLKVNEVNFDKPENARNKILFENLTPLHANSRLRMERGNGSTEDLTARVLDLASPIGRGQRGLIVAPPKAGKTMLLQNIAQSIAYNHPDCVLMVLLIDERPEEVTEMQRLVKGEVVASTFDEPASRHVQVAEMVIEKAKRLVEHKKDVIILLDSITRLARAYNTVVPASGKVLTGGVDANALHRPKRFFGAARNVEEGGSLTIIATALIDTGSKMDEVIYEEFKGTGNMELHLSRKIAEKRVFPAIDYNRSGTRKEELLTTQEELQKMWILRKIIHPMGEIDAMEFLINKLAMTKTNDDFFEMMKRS
# Biological target: Rho WT (Escherichia coli) (UniProt P0AG30)
# Test: EMSA
# Details: 25 mM Tris-HCl pH 8.0, 5 mM MgCl2, 50 mM KCl, 1 mM DTT, 0.1 mg/ml BSA; 5 nM RNA, 0-50 nM Rho; 37 °C 5 min; 4% native gel at 4 °C; recombinant protein; label: [α-32P]UTP internal; probe letters rebuilt from the primers and the genome
row,Sequence,Kd
1,GGGAGAACUGCUUACGCGGCAUUAACAAUCGGCCGCCCGACAAUACUGGAGAUGAAUAUGAGCUAUACCCUGCCAUCCCUGCCGUAUGCUUACGAUGCCCUGGAACCGCACUUCGAUAAGCAGACCAUGGAAAUCCACCACACCAAACACCAUCAGACCUACGUAAACAACGCCAACGCGGCGCUGGAAAGCCUGCCAGAAUUUGCCAACCUGCCGGUUGAAGAGCUGAUCACCAAACUGGACCAGCUGCCAGCAGACAAGAAAACCGUACUGCGCAACAACGCUGGCGGUCACGCUAACCACAGCC [sodA terminator RNA],0.00999 µM
2,GGGAGAGCUUCACUGACAUAUUCUGCGAACAACAUGCCGAACGUCGUAAAUAUGACCAGUCAAUAUCAGGACGAAGUUCUUCGCACAGAACCUCACCUCUUGUUGCACGUUCAAUUGCUGGACAUCUCUCGGCAGGCAAUUGACGUACCCCUUUGAUCCAUUGAUUUACGCUUGGAGGUGAUACACCUAAAAGCCUAGCCAUUGCUGAUUGCCCACCGACAACAGCACAAGCUUGCUUGAAUGAAUAGUUCUCUUUUUUCAUCGAAUGAACUCCAAAAACACACAGAAAUAUUAGGCGACGCCUAACGCAAUUGUCAAUAGGCUGUGCCUAAUGCAGUAAGG [trac (rac) terminator RNA],0.00308 µM
3,GGGAGAGGGUGAUUUUUAUUCAGGAUCGCAUUUACAUCUGAUACAACCCAAUAAUUCGUGUAUCAGAGUUUAAACAGAGUUGUUUGCCACCAUCUCAAAUCUGUCGUGGAUAAAUCCUCCGUAGCCUUUACACUUAGGUAGCAAUAAAGGCACACAGAUGCAGCAAAGGAAUAAAUCAUGGGAUCUGAUGCGAAAAACUUGAUGAGCGACGGGAACGUGCAAAUUGUUAAGACCGGCGAGGUCAUUGGCGCGACGCAACUUACUGAAGGCGAGUUGAUUGUUGAAGCUGGCGGAAGAGCCGAAAAUAC [ydhQ terminator RNA],0.0164 µM
4,GGGAGAGUGACAGCGCACCAAAUCCCCGGCUACGCCCGAAGCCGGGCAGGUCAACAAGGUGCAGCGUAAAAUGCGAGCUAAGUUCCUCGUCAAUGCAACGCCACACUUCGGCAUUCAGUCCCCAUCCGUGCAGCAGCACAAGAUGAACAUUCCCCUGACCUUUGGUCUGCCACCAGAUGUUAUUCAUCCGCUAUUGUUCUCUUUUGACUUACAAGGAUGAACAUAUGCUAACAGUACCGGGAUUAUGCUGGCUAUGCCGAAUGCCACUGGCGUUAGGUCAUUGGGGGAUUUGUUCGGUCUGUUCACG [gntX terminator RNA],0.0232 µM
5,GGGAGAGUGGCAUAAACGCCUCAUCCGCCCUUGAGGAACAGCGCGAUCGGCAGCCGCGUUGUAUCAGGCAUCCUUUCAGACUCCUCCGAAUCCUUAAGUAUUUCCAGCCAUUCCCGCGCUUUUCAUCUUCUGUCUGAUAGCUGCUUUUCUCCUUCGCUUGCAUGAUUGGCAUAACUGCAAAGAAGGAGGUGUUCCCGUGAAUAAAUCAAUGUUGGCGGGUAUCGGGAUUGGUGUCGCAGCUGCGCUGGGCGUAGCGGCAGUGGCCAGUCUGAACGUGUUUGAACGGGGCCCGCAAUACGCUCAGGUUG [ycfJ terminator RNA],0.0185 µM

# Source: PMC9160355
